Experimental data published in article doi:10.1101/2023.06.01.543357.
No constants are given. Whether binding was seen depends on the method and setting. Some entries that bind do so weakly or less than the wild type. Where a sequence is shown, tags or fusion partners need not be part of it.

Biological target: face-to-face (FtF) histone from Thermococcus kodakarensis (HTkC) (Thermococcus kodakarensis) (UniProt Q5JDW7)
Assay: crystal structure

binding: binds
B1: face-to-face (FtF) histone from Thermococcus kodakarensis (HTkC) (protein, UniProt Q5JDW7 1-59)
chain: MAEMLVKSKVKEFVKSVDPEMRVSPEFYDALEAEVKALVEKAIKRAQAEGRKTLYARHV
